A short description of this experiment: qHTS Assay for Lipid Storage Modulators in Drosophila S3 Cells.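 On cell number change: cells counted by Cell Tracker Red CMTPX staining in the red channel.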 The conditions noted are these: BODIPY lipid droplet fluorescence, 18-24 h; for cell number change: measured here: cell count max response, cells fed with added oleic acid. In short, it runs like this:
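Laser-scanning cytometry quantifies lipid droplet accumulation (500–530 nm total intensity; droplet/cell object ratio) in oleic acid-fed (400 uM added) Drosophila S3 cells treated with a concentration series. 20 uM Triacsin C defined 100% inhibition.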

[1] abbreviates: measured here: lipid fluorescence (Fed channel) AC50, cells fed with added oleic acid.
Setting [2] is: measured here: cell number channel AC50, cells fed with added oleic acid.

The structures appear in SMILES notation. The list shows a part of the results. These are further read-outs of the screen, such as a control signal, another cell line or another target. No call is given for them. The list favours compounds with an active or inconclusive main result. Potencies come from curve fits of mixed quality, noted in brackets.

A word on the AC50: it is the concentration giving half of the maximal activity seen.

Regarding `O=c1c2ccccc2[nH]c(=S)n1Cc1cccnc1`, the cell number change is -6.87%. Also, under setting [1], the AC50 was 0.651 µM [rising, full curve, poor fit].

Take `CCN(CC)S(=O)(=O)c1cccc(C(=O)N/N=C/c2ccc(OC)c(O)c2)c1`: the cell number change came to 24.2%.

Turning to `CCCc1cc(=O)oc2cc(C)cc(OC(=O)c3ccco3)c12`, the cell number change is -9.91%. The AC50 under setting [2] was 0.326 µM [falling, full curve, poor fit].

As for `CCCCn1c(-c2csc3c2CCCC3)n[nH]c1=S`, the cell number change is -3.31%.

As to `CC(=O)Nc1c(O)nc(SCC(=O)Nc2ccc(C(C)=O)cc2)[nH]c1=O`, the cell number change is -10%.

As for `COc1cc2c(cc1OC)CN(C(=O)c1cc(Cl)nc(Cl)c1)CC2`, under setting [1], the AC50 is 0.731 µM [rising, partial curve, poor fit].

As to `Cc1ccc(NC(=O)N(Cc2ccc3c(c2)OCO3)Cc2cc3cc4c(cc3[nH]c2=O)OCCO4)cc1`, the cell number change stood at 36.2%. Besides, under setting [2], the AC50 was 0.231 µM [rising, full curve]. In addition, under setting [1], the AC50 is 2.31 µM [rising, full curve].

Turning to `CCc1ccc(CN2C(=O)c3ccccc3C2C(=O)NC(C)CC)cc1` (stereo not given), the cell number change was -29.9%. Moreover, under setting [1], the AC50 is 16.4 µM [falling, partial curve].

With `CCN(CC)C(=O)Oc1ccc2c(=O)c(-c3ccccc3)coc2c1`, the cell number change amounted to 6.58%. In addition, the concentration at half-maximal activity (AC50) under setting [1] was 5.17 µM [rising, full curve, poor fit].

For `Cn1c(=O)[nH]c(=O)c2c1nc(CN1CCN(c3cccc(Cl)c3)CC1)n2CCc1ccccc1`, the cell number change is -37.5%. Besides, the AC50 under setting [2] was 29.1 µM [falling, single point]. Under setting [1], the AC50 was 2.31 µM [rising, partial curve].

On to `CC(C)(C)n1nnnc1CN1CCSCC1`, for which the cell number change is -99.4%. Moreover, the AC50 under setting [2] was 29.1 µM [falling, single point].

As to `NC(N)=NS(=O)(=O)c1ccc(NC(=S)NC(=O)c2sc3ccccc3c2Cl)cc1`, the cell number change was 9.76%.

Regarding `C=CCn1c(O)c(N=NC(=O)c2cccnc2)c2cc(Br)ccc21`, the cell number change amounted to 36.8%. The AC50 under setting [2] is 6.51 µM [falling, single point]. Moreover, the concentration at half-maximal activity (AC50) under setting [1] is 3.66 µM [falling, single point].

With `O=C(/C=N/O)Nc1ccccc1C(=O)O`, the cell number change is -12.9%. Under setting [1], the AC50 was 0.13 µM [falling, full curve].

Take `Cc1nc2ccc(NC(=O)c3ccc(S(=O)(=O)N(C)C)cc3)cc2s1`: the cell number change was found to be 4.33%. Moreover, under setting [2], the AC50 was 0.0058 µM [falling, full curve, poor fit].

Take `O=C(N/N=C/c1ccc(Cl)cc1Cl)c1cccc(N2CCCC2=O)c1`: the cell number change was -17.9%. Besides, the AC50 under setting [2] was 3.66 µM [rising, partial curve, poor fit].

`CC1CN(C(=O)c2ccccc2OCc2ccccc2Cl)CC(C)O1` (stereo not given): the cell number change turned out to be 5.94%. Under setting [1], the AC50 was 29.1 µM [rising, single point].

As to `Cc1ccc(-n2ncc3c(SCC(=O)Nc4cc(C)on4)ncnc32)c(C)c1`, the cell number change was found to be 33.6%. The concentration at half-maximal activity (AC50) under setting [2] is 0.651 µM [rising, full curve, poor fit]. Further, under setting [1], the AC50 is 25.9 µM [rising, single point].

On to `COc1cccc(C(=O)Nc2ccc(C(=O)NCC(C)C)cc2)c1`, for which the cell number change turned out to be 18.4%. For the same molecule, the AC50 under setting [1] was 2.06 µM [rising, partial curve].

With `Cc1ccc(CN2CCc3[nH]c(=O)[nH]c(=O)c3C2)cc1`, the cell number change came to 36.9%.

Regarding `COc1ccc(C(CNC(=O)COc2ccc(F)cc2Cl)N2CCOCC2)cc1` (stereo not given), the AC50 under setting [2] was 3.26 µM [rising, single point].

Regarding `COc1ccc([C@H]2CC(=O)C=C(c3cccc(Cl)c3)C2)cc1`, the cell number change was -2.26%. For the same molecule, the AC50 under setting [2] was 0.92 µM [falling, single point]. For the same molecule, the AC50 under setting [1] was 0.731 µM [falling, single point].

On to `CCOCCCNC(=O)c1c(-c2ccccc2)noc1C`, for which the AC50 under setting [1] is 14.6 µM [falling, partial curve].

Turning to `O=C(NCC1CCCO1)c1ccc2nc(N3CCCCC3)sc2c1` (stereo not given), the cell number change is -0.553%.

Turning to `CN(C1CCCCC1)S(=O)(=O)c1ccc(C(=O)Nc2sc3c(c2C(N)=O)CC(C)(C)NC3(C)C)cc1`, the cell number change came out at 21.7%.

For `CN(c1ccc(C(=O)NCCSCc2ccco2)cc1)S(C)(=O)=O`, the cell number change is -22.3%.

In the case of `CC(=O)Nc1ccc(NC(=O)C(C)OC(=O)CCCc2c[nH]c3ccccc23)cc1` (stereo not given), the cell number change was 47.1%. Besides, under setting [2], the AC50 was 13 µM [rising, partial curve].

Turning to `COc1ccc(/C=N/NC(=O)CN2CCSCC2)c(OC)c1`, the cell number change is -47.5%. Further, the AC50 under setting [2] is 2.91 µM [rising, single point]. Besides, the AC50 under setting [1] is 6.51 µM [rising, single point].

Regarding `COc1cc2c(cc1NC(=O)CC1SC(N3CCCC3)=NC1=O)oc1ccccc12` (stereo not given), the cell number change is -14.7%. Also, the AC50 under setting [1] is 0.00461 µM [rising, full curve, poor fit].

Take `COc1cccc(/C=C/C(=O)OCC(=O)NC(=O)NC2CCCC2)c1`: the cell number change was -6.27%. Also, the AC50 under setting [2] was 6.51 µM [falling, single point].

As to `CC(=O)NC12CC3CC(C1)CC(C(=O)NCc1ccc(C)cc1)(C3)C2`, the cell number change came to 12.7%. In addition, the concentration at half-maximal activity (AC50) under setting [1] was 29.1 µM [rising, single point].

As to `Cc1cc(C)n(C(=O)CNC(=O)c2cccc(Cl)c2)n1`, the cell number change came out at 1.61%. In addition, the AC50 under setting [1] was 0.58 µM [rising, single point].

For the molecule `CCCSc1ccc(C(=O)Nc2ccc(F)cc2F)cn1`, the cell number change was -23.5%. Besides, the AC50 under setting [1] is 23.1 µM [falling, single point].

Regarding `Brc1ccc2c(c1)C(C1=NCCN1)c1ccccc1CS2` (stereo not given), the cell number change was -0.244%. Further, the AC50 under setting [1] was 32.6 µM [rising, single point].

For `COc1ccc(OC)c(S(=O)(=O)N2CCC(C(=O)NC3CCCCCC3)CC2)c1`, the cell number change is 40.8%. In addition, the AC50 under setting [2] is 1.64 µM [rising, full curve]. For the same molecule, the AC50 under setting [1] was 5.62 µM [falling, single point].

Consider `CC(C)CN(CCCNC(=O)CN1C(=O)COc2ccc(S(=O)(=O)N3CCC(C)CC3)cc21)CC(C)C`, for which the cell number change is -0.917%. Under setting [1], the AC50 was 0.92 µM [rising, full curve].

For `O=C(Nc1nccs1)c1ccc2nccnc2c1`, the cell number change is -16.6%. The AC50 under setting [1] is 6.51 µM [rising, partial curve, poor fit].

On to `Cc1ccc(NS(=O)(=O)c2cccc(C(=O)N3CCCCCC3)c2)cc1`, for which the cell number change was -24.5%.

As for `Cc1ccc(NC(=O)CN2CCN(Cc3ccccc3)CC2)c(Br)c1`, the cell number change is 13.7%. Besides, under setting [1], the AC50 was 6.51 µM [falling, single point].

In the case of `CCOc1ccccc1-n1c(SCC(=O)NC(C)(C)C)nnc1-c1ccoc1C`, the cell number change is -26.6%.

In the case of `CC(C)C(NC(=O)c1ccccc1)C(=O)OCc1cc([N+](=O)[O-])cc2c1OCOC2` (stereo not given), the cell number change was -40.7%. Also, under setting [2], the AC50 was 25.9 µM [falling, single point]. For the same molecule, under setting [1], the AC50 is 20.6 µM [falling, single point].

As to `CC(Oc1cccc(Cl)c1)C(=O)NCCCCc1ccccc1` (stereo not given), the cell number change amounted to 4.66%. Further, under setting [1], the AC50 is 0.411 µM [rising, full curve, poor fit].

As for `Cc1cc(C)c(C#N)c(Sc2ccc(N)cc2)n1`, the cell number change is 29.7%. Moreover, the AC50 under setting [1] was 7.31 µM [rising, partial curve, poor fit].

Regarding `Cc1ccc(-n2[nH]c(C)c(C=Nc3ccc4[nH]c(=O)[nH]c4c3)c2=O)cc1`, the cell number change is -89.2%. For the same molecule, under setting [2], the AC50 was 29.1 µM [falling, single point]. Further, under setting [1], the concentration at half-maximal activity (AC50) was 20.6 µM [falling, partial curve].

As for `O=C(CCN1C(=O)[C@H]2CC=CC[C@H]2C1=O)NCc1nc(-c2ccccc2)no1`, the cell number change is -13.3%. In addition, under setting [1], the AC50 is 25.9 µM [rising, single point].

As to `CC(C)n1cc(C(N)=S)c(=O)n(Cc2ccccc2)c1=O`, the cell number change was -29.2%.

Turning to `Cc1cccc(C(=O)N2CCN(c3ccc([N+](=O)[O-])c(NCc4ccco4)c3)CC2)c1`, the cell number change was determined as 0.256%. Moreover, the AC50 under setting [1] is 0.58 µM [rising, single point].

For `COC(=O)c1c(NC(=O)C2CC2)sc(C(=O)Nc2ccccc2)c1C`, the cell number change is 57.9%. Also, the AC50 under setting [2] was 29.1 µM [rising, single point].

For the molecule `CCOC(=O)[C@@H]1[C@H]2COc3ccccc3[C@@H]2N2C(=O)N(c3cccc(C)c3)C(=O)[C@]12C`, the cell number change turned out to be 32.9%. Moreover, the AC50 under setting [2] is 23.1 µM [rising, single point]. Also, the AC50 under setting [1] is 29.1 µM [rising, single point].

`COC(=O)c1sc(SC)nc1N`: the AC50 under setting [1] is 3.26 µM [rising, single point].

On to `Cn1c(NNC(=O)c2cccc3ccccc23)cc(=O)n(C)c1=O`, for which the cell number change was -2.89%. The AC50 under setting [1] is 0.00517 µM [falling, full curve, poor fit].

On to `Oc1ccccc1C=Nc1ccccc1-c1nc2ccccc2[nH]1`, for which the cell number change is -18.6%. Under setting [1], the concentration at half-maximal activity (AC50) was 16.4 µM [falling, single point].

As for `CCC(Sc1nc2cc3c(cc2c(=O)n1Cc1ccco1)OCO3)C(=O)NCCOC` (stereo not given), the AC50 under setting [1] is 2.31 µM [rising, partial curve, poor fit].

Take `O=C(CCN1C(=O)c2ccccc2C1=O)Nn1cnnc1`: the cell number change came to 6.86%.

On to `COc1ccc(C2C3C(C)=NN=C3CC(C)(O)C2C(C)=O)cc1` (stereo not given), for which the AC50 under setting [1] is 0.184 µM [rising, full curve, poor fit].

As for `Cn1c(=O)c(=O)n(C)c2cc(S(=O)(=O)N3CCN(c4ccccc4F)CC3)ccc21`, the cell number change was determined as 9.96%. Further, under setting [1], the AC50 was 0.013 µM [rising, full curve, poor fit].

On to `O=C(N[C@@H](Cc1c[nH]c2ccccc12)C(=O)O)C1CCN(S(=O)(=O)c2cccs2)CC1`, for which the cell number change came to 20.7%. For the same molecule, the AC50 under setting [2] was 0.82 µM [rising, full curve, poor fit].

As to `CC1CC(=O)Nc2ccccc2N1C(=O)Cn1cnc2ccccc2c1=O` (stereo not given), the cell number change was -7.38%. Besides, under setting [1], the AC50 was 32.6 µM [rising, single point].

On to `CC1CN(c2cc(=O)n(-c3ccccc3)c(=O)[nH]2)CC(C)O1` (stereo not given), for which the cell number change was -32%. Further, the AC50 under setting [2] is 14.6 µM [falling, single point].

For the molecule `COc1c(Br)cc(Br)cc1C(=O)Nc1ccccc1N1CCCC1`, the cell number change amounted to 90.8%. Moreover, under setting [2], the AC50 was 25.9 µM [rising, partial curve]. The AC50 under setting [1] was 29.1 µM [rising, single point].

For the molecule `CCn1c(C)cc(/C=C2\NC(=O)N(CC(=O)Nc3ccc(F)cc3)C2=O)c1C`, the cell number change is -0.955%. Also, under setting [1], the AC50 was 16.4 µM [falling, partial curve, poor fit].

Source of the values: PubChem BioAssay AID2685 (National Center for Advancing Translational Sciences (NCATS), 2010).
